These are yes or no findings as the source states them, for the method shown. Some entries that bind do so weakly or less than the wild type.
Target: Gal4-DBD fusion of C. albicans TBP (yeast two-hybrid bait) (C. albicans) (UniProt O43133)
Test: two-hybrid; AAD-pACT2 (prey) and TBP-pAS2 (Gal4-DBD bait) in S. cerevisiae PJ69-4A; HIS3 (with 3AT) and LacZ (X-gal) reporters on SD-leu-trp plates

Chains of the proteins cited; added tags and fusions are not shown. Residues count along the entry.
UniProt O43133, residues 2-238: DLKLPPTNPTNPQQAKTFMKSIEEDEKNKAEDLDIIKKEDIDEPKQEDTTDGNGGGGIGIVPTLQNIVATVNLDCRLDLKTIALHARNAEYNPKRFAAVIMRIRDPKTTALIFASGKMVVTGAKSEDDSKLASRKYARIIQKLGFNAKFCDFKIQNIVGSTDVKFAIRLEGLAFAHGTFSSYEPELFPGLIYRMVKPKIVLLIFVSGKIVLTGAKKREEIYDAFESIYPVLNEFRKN
UniProt A0A1D8PN96, residues 880-981: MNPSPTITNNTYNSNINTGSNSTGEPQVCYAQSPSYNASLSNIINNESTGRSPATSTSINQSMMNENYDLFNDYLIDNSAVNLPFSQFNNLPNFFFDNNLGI

“Tac1-AAD in pACT2 (yeast two-hybrid prey) (from UniProt A0A1D8PN96 880-981) (domain or fragment)” was tested, and the binding was “binds”.

Source: article PMC10370356, “Molecular dissection studies of TAC1, a transcription activator of Candida drug resistance genes of the human pathogenic fungus Candida albicans” (Frontiers in Microbiology, 2023)
